The other results are listed elsewhere or left out.
Legend:
Assay in all cases: log2 fold change, soluble protein after heating vs DMSO (PISA); higher = thermal stabilisation; K562 lysate, 10 uM; active = over 0.2 and 3.5 SD of the protein, either way, in both replicates (recomputed)
[1] = compound: C=CC(=O)N1CCC[C@@H](n2nc(-c3ccc(Oc4ccccc4)cc3)c3c(N)ncnc32)C1 [ibrutinib]
How it was run: (§1)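 Quantification was by TMTpro 16plex LC-MS/MS with equalised channel sums, applied to the supernatant after 21,000xg for 90 min. Samples were crude K562 extract at 1 mg/mL protein in PBS pH 7.4 with 1 mM MgCl2, treated with 10 μM compound for 30 min, heated for 3 min across 48°C-58°C, pooled and brought to 0.5% NP-40 at 4°C. Values are log-two fold changes in thermal stability relative to solvent controls, from duplicates.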

Sequences of proteins named here, by UniProt entry; tags and fusion partners are left off. A change or cut given only in a name is not applied to a line headed by its entry.
UniProt P0DMV8, whole entry, looked up: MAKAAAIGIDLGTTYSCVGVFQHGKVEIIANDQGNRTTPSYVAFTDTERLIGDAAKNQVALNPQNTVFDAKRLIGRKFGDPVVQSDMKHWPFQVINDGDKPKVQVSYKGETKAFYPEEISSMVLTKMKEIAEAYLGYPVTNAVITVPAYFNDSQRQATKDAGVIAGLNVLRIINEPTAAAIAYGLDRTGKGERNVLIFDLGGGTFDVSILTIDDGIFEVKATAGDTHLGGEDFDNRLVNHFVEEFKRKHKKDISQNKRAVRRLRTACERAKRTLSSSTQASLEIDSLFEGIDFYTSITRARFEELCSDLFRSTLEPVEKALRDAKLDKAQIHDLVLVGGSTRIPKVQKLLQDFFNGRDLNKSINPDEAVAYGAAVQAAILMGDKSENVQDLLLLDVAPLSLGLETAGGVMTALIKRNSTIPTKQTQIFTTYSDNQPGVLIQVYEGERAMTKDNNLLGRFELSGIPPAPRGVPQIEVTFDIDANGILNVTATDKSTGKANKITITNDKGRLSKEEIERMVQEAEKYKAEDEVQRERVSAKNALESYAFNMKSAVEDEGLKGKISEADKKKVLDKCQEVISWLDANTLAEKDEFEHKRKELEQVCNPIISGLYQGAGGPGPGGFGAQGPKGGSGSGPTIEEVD
UniProt Q6NVY1: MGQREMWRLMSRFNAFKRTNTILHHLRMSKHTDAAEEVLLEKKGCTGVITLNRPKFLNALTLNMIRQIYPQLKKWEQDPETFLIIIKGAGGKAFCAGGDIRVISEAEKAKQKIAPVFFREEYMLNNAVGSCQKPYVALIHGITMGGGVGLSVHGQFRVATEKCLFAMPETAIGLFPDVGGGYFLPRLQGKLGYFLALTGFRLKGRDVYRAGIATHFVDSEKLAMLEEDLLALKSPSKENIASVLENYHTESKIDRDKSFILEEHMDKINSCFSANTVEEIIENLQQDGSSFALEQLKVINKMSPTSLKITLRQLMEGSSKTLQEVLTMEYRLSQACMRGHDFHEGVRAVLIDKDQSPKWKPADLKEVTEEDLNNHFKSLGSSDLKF
UniProt P11021: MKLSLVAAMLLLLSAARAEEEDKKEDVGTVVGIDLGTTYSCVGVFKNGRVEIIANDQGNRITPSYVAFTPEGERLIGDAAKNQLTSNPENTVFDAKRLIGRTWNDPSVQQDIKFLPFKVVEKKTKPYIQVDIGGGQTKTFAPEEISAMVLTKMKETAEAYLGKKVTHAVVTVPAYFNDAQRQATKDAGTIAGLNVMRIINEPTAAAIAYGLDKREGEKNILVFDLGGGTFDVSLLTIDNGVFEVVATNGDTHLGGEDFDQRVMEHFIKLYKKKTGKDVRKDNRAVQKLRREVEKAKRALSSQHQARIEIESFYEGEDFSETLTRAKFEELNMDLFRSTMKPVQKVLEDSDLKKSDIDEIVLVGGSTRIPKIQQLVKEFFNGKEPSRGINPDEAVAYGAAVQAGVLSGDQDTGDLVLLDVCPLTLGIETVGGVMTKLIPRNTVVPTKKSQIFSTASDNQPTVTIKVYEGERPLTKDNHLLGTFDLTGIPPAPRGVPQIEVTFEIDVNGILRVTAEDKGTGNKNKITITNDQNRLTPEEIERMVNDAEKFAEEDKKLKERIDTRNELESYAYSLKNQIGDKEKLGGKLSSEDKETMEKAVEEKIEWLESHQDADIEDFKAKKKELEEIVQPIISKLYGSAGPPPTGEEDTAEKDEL
UniProt P17066, whole entry, looked up: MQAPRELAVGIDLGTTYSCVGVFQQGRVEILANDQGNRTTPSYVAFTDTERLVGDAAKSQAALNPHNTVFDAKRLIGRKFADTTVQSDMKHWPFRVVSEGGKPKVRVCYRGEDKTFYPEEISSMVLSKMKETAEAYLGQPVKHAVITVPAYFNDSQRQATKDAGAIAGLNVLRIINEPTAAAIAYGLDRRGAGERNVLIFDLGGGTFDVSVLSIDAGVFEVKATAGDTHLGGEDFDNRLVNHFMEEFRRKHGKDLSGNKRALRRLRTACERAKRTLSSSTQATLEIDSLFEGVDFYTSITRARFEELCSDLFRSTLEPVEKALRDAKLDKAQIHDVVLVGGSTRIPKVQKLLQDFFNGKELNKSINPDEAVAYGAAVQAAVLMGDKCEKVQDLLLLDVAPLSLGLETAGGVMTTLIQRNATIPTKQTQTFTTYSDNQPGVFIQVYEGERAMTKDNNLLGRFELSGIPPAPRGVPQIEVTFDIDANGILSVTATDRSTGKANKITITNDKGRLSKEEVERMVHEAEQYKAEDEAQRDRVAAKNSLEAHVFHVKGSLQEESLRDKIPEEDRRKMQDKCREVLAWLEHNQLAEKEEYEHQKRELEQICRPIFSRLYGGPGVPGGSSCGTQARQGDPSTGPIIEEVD
UniProt P34931, whole entry, looked up: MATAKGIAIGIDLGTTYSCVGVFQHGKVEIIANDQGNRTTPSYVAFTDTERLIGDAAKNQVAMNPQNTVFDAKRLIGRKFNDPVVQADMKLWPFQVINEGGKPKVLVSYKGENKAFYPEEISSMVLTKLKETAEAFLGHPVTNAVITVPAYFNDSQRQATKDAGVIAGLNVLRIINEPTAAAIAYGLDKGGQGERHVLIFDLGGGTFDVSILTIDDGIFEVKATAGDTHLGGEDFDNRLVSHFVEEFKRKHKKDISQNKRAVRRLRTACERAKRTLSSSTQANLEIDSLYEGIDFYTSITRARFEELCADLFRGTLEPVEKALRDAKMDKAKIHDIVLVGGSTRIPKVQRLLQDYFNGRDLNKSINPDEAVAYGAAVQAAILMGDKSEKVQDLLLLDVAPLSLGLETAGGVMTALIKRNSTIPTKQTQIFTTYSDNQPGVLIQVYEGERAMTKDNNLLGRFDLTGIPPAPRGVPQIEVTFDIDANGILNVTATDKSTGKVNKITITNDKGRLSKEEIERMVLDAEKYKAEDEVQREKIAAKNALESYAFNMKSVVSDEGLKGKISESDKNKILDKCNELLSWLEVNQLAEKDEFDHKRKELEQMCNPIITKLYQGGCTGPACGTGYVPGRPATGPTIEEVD
UniProt Q9UPZ3: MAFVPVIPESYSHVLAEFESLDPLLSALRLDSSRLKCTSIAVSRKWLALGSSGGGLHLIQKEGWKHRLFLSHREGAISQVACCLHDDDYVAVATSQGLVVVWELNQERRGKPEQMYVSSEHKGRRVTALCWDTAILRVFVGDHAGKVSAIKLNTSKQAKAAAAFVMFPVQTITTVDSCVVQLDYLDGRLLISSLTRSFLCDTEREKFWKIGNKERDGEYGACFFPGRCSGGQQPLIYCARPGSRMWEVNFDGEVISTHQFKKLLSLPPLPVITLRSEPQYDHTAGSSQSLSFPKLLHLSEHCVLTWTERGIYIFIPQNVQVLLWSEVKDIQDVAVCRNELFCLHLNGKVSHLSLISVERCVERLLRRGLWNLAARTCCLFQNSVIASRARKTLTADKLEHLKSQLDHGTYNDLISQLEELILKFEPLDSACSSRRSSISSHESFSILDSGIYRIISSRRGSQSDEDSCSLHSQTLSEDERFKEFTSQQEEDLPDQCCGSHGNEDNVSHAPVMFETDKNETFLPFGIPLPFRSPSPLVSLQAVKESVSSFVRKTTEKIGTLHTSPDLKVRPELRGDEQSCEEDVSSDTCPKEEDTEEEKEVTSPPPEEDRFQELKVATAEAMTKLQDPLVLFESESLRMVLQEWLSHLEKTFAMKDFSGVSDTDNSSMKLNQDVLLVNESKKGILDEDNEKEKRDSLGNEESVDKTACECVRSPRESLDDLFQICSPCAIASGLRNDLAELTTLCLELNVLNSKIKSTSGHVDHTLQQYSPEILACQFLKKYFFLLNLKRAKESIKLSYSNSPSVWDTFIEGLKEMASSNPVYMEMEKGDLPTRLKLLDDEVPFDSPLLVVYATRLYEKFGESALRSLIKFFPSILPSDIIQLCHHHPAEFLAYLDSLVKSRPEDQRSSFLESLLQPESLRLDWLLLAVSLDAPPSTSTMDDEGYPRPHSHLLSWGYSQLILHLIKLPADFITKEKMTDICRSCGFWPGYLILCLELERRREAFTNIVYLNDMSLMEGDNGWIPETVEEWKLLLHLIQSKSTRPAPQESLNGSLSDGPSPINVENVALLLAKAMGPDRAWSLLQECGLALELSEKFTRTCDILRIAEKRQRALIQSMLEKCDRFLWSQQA
UniProt Q9NSC5: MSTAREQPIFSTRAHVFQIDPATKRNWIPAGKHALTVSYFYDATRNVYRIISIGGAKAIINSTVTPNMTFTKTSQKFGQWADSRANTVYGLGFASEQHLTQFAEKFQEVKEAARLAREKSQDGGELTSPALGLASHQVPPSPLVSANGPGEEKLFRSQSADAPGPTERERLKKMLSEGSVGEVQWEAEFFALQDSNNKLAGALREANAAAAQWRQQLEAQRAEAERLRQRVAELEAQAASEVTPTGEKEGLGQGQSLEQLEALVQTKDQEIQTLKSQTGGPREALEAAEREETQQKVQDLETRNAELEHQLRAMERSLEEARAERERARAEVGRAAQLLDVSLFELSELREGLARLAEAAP
UniProt Q8WVB3: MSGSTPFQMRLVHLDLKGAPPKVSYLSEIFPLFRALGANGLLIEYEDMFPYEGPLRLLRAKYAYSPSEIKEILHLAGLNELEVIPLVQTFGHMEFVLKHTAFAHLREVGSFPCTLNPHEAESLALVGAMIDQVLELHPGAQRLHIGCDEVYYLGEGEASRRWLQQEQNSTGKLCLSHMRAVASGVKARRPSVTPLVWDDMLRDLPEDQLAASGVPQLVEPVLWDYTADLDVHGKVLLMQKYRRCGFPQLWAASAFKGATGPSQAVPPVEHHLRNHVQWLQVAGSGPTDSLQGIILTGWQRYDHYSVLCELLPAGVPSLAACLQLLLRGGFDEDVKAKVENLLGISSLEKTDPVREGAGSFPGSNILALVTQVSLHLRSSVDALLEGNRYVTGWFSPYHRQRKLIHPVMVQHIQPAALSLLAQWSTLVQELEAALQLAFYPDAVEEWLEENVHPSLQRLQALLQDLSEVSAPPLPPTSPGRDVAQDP
UniProt P05114: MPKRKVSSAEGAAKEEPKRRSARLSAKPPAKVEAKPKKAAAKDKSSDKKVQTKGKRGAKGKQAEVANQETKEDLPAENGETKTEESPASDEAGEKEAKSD
UniProt O75330: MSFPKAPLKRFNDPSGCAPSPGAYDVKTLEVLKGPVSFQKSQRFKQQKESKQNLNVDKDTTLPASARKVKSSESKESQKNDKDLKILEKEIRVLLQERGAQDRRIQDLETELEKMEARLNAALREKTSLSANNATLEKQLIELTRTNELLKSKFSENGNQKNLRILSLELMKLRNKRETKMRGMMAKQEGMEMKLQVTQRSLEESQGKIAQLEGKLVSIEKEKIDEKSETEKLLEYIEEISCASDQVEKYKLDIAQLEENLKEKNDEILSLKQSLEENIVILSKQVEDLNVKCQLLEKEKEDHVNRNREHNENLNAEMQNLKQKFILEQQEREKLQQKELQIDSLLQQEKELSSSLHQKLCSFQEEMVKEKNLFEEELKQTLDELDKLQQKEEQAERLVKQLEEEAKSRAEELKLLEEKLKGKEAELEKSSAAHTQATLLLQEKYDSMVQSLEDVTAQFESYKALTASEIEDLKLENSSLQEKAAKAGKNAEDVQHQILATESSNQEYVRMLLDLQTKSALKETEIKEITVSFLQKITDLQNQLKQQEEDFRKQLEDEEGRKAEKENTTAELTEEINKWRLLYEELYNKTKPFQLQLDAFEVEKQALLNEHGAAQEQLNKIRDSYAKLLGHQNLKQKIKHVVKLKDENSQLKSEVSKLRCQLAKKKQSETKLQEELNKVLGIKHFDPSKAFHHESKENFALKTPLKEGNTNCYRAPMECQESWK
UniProt P52272: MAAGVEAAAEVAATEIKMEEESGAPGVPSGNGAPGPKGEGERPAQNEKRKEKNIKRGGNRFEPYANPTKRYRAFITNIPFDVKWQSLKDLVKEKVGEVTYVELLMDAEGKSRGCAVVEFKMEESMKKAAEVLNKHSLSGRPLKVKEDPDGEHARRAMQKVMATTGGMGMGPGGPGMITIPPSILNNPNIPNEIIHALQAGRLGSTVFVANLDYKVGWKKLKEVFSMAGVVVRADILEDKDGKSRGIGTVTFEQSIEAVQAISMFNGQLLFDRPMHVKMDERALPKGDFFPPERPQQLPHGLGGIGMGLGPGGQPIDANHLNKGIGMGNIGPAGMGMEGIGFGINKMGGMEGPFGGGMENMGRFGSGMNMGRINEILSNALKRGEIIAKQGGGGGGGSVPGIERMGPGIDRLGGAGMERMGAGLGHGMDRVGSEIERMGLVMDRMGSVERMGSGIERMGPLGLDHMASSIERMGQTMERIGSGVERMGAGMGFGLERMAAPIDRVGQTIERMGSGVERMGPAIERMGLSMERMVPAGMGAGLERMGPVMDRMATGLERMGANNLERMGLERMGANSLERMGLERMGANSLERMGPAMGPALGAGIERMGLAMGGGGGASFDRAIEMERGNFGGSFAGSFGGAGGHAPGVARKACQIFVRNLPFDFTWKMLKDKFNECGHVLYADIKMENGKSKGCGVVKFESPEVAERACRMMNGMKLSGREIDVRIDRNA

[2] = compound: CC(=O)c1cnc2ccc(-c3cc(Cl)c(O)c(Cl)c3)nc2c1N[C@H]1CC[C@H](CN(C)C)CC1
How it was run: as §1

[3] = compound: CC(C)(C)Cn1c(N)nc2ccc(-c3[nH]c(C(C)(C)C)nc3-c3ccc(F)cc3)nc21 [ralimetinib]
How it was run: as §1

[4] = compound: CC(C)(O)CC(=O)NCCn1ccc2ncnc(Nc3ccc(Oc4cccc(C(F)(F)F)c4)c(Cl)c3)c21
How it was run: as §1

[5] = compound: CC(C)C1=C2N=C(C=C(N2N=C1)NCC3=CC=CC=C3)NCCCCCCN
How it was run: as §1

[6] = compound: CC1=C(C(CC(=O)N1)C2=CC=C(C=C2)C(F)(F)F)C(=O)NC3=C(C=C4C(=C3)C=NN4)F
How it was run: as §1

[7] = compound: CC1=C(C2=C(C=C1)C(=O)C3=CC=CC=C3N2CCCN)C
How it was run: as §1

[8] = compound: CC1=C(C=C(C=C1)NC(=O)C2=CC(=CC=C2)C(C)(C)C#N)NC3=CC4=C(C=C3)N=CN(C4=O)C
How it was run: as §1

[9] = compound: CC1=C(C=C(C=C1)NC(=O)C2=CC(=CC=C2)N(C)C)NC(=O)C3=CC=C(C=C3)O
How it was run: as §1

[10] = compound: CC1=CC=C(C=C1)SC2=C3C=C(SC3=CN=C2)C(=O)N
How it was run: as §1

Measured: log2 fold change

HSPA1A (UniProt P0DMV8)
inactive: [1] -0.008 | [2] -0.015 | [3] -0.026 | [4] 0.008 | [5] 0.022 | [6] 0 | [7] 0.001 | [8] -0.009 | [9] 0.022 | [10] -0.008

HIBCH (UniProt Q6NVY1)
inactive: [1] 0.008 | [2] 0.008 | [3] 0 | [4] 0.001 | [5] -0.017 | [6] -0.004 | [7] 0.035 | [8] -0.019 | [9] -0.036 | [10] 0.023

HSPA5 (UniProt P11021)
inactive: [1] -0.004 | [2] 0.009 | [3] -0.002 | [4] 0.027 | [5] -0.013 | [6] -0.012 | [7] 0.029 | [8] -0.036 | [9] -0.025 | [10] 0.007

HIRIP3 (UniProt Q9BW71)
inactive: [1] -0.037 | [2] -0.001 | [3] 0.011 | [4] -0.014 | [5] -0.062 | [6] 0.006 | [7] -0.008 | [8] 0.061 | [9] 0.003 | [10] 0.004

HIST2H2BF isoform 2 (UniProt Q5QNW6)
inactive: [1] 0.007 | [2] -0.012 | [3] -0.011 | [4] -0.006 | [5] -0.024 | [6] -0.033 | [7] 0.056 | [8] -0.024 | [9] -0.015 | [10] 0.005

HSPA6 (UniProt P17066)
inactive: [1] -0.027 | [2] -0.027 | [3] -0.041 | [4] -0.012 | [5] 0.018 | [6] -0.036 | [7] 0.16 | [8] 0.027 | [9] 0.014 | [10] -0.003

HECTD4 (UniProt J3KPF0)
inactive: [1] 0.017 | [2] -0.024 | [3] 0.001 | [4] 0.007 | [5] -0.032 | [6] -0.028 | [7] -0.036 | [8] 0.032 | [9] 0.021 | [10] 0.009

2 consecutive records already listed, quoted:
HSPA5 (UniProt P11021)
inactive: [1] -0.004 | [2] 0.009 | [3] -0.002 | [4] 0.027 | [5] -0.013 | [6] -0.012 | [7] 0.029 | [8] -0.036 | [9] -0.025 | [10] 0.007

HIRIP3 (UniProt Q9BW71)
inactive: [1] -0.037 | [2] -0.001 | [3] 0.011 | [4] -0.014 | [5] -0.062 | [6] 0.006 | [7] -0.008 | [8] 0.061 | [9] 0.003 | [10] 0.004

Next records follow:

HSPA1L (UniProt P34931)
inactive: [1] 0.035 | [2] 0.04 | [3] -0.041 | [4] -0.2 | [5] -0.051 | [6] 0.006 | [7] -0.13 | [8] -0.061 | [9] -0.038 | [10] 0.028

HPRT1 (UniProt P00492)
inactive: [1] 0.006 | [2] 0.025 | [3] 0.009 | [4] 0.038 | [5] -0.035 | [6] 0.004 | [7] 0.009 | [8] -0.015 | [9] 0.018 | [10] 0.005

HSP90AB1 (UniProt P08238)
inactive: [1] 0.001 | [2] 0.003 | [3] -0.011 | [4] 0.006 | [5] 0.006 | [6] 0 | [7] 0.014 | [8] -0.024 | [9] 0.019 | [10] 0.012

HSP90AA1 isoform 2 (UniProt P07900)
inactive: [1] -0.01 | [2] 0.002 | [3] -0.018 | [4] -0.02 | [5] 0.008 | [6] -0.012 | [7] 0.001 | [8] -0.018 | [9] 0.004 | [10] 0.01

HSDL2 (UniProt Q6YN16)
inactive: [1] 0.002 | [2] -0.007 | [3] -0.032 | [4] -0.03 | [5] -0.015 | [6] 0.007 | [7] -0.038 | [8] 0.01 | [9] -0.015 | [10] -0.017

HSP90AB3P (UniProt Q58FF7)
inactive: [1] 0.085 | [2] 0.023 | [3] -0.013 | [4] -0.033 | [5] -0.052 | [6] 0.033 | [7] -0.052 | [8] 0.032 | [9] 0.023 | [10] -0.015

HPS1 (UniProt Q92902)
inactive: [1] 0.034 | [2] 0 | [3] 0.083 | [4] -0.066 | [5] 0.078 | [7] 0.029 | [8] -0.046 | [9] -0.16 | [10] -0.092

HSP90B1 (UniProt P14625)
inactive: [1] -0.002 | [2] -0.004 | [3] -0.019 | [4] 0.003 | [5] 0.006 | [6] -0.006 | [7] -0.007 | [8] -0.021 | [9] -0.002 | [10] -0.004

HSD17B7 (UniProt P56937)
inactive: [1] 0.091 | [2] 0.016 | [3] 0.028 | [4] -0.073 | [5] -0.115 | [6] -0.181 | [7] -0.169 | [9] 0.033 | [10] 0.015

HPS5 (UniProt Q9UPZ3)
inactive: [1] -0.091 | [2] -0.129 | [3] 0.157 | [4] 0.092 | [5] -0.285 | [6] 0.144 | [7] 0.005 | [8] -0.003 | [9] 0.033 | [10] 0.03

HOMER3 (UniProt Q9NSC5)
inactive: [1] -0.095 | [2] -0.01 | [8] -0.028 | [10] 0.048

HK2 (UniProt P52789)
inactive: [1] 0.021 | [2] -0.005 | [3] 0.019 | [4] 0.006 | [5] -0.029 | [6] -0.007 | [7] 0.006 | [8] 0.008 | [9] 0.002 | [10] 0.011

HEXD isoform 2 (UniProt Q8WVB3)
inactive: [1] -0.027 | [2] 0.05 | [3] -0.164 | [4] -0.127 | [5] -0.261 | [9] 0.07 | [10] 0.059

HMGN1 (UniProt P05114)
inactive: [1] -0.061 | [2] 0.008 | [3] -0.007 | [4] 0.008 | [5] 0.006 | [6] 0.025 | [7] 0.004 | [8] -0.032 | [9] 0.03 | [10] 0.009

HNRNPR (UniProt O43390)
inactive: [1] -0.042 | [2] -0.288 | [3] 0.006 | [4] 0.052 | [5] -0.12 | [6] 0.052 | [7] -0.004 | [8] 0.018 | [9] 0.008 | [10] 0.006

HMGN5 (UniProt Q5JSK9)
inactive: [1] 0.051 | [2] -0.007 | [6] -0.094 | [10] -0.005

HNRNPUL1 (UniProt M0R247)
inactive: [1] -0.045 | [5] 0.016

HMBOX1 isoform 5 (UniProt Q6NT76)
inactive: [1] 0.051 | [2] 0.021 | [3] 0.026 | [4] 0.007 | [5] 0.072 | [6] -0.014 | [7] 0.052 | [8] 0.015 | [9] 0.005 | [10] 0.054

HEATR6 (UniProt Q6AI08)
inactive: [1] 0.045 | [2] -0.036 | [3] 0.064 | [4] -0.031 | [5] -0.051 | [6] 0.033 | [7] -0.069 | [8] -0.004 | [9] 0.083 | [10] -0.009

HMMR isoform 3 (UniProt O75330)
inactive: [1] -0.004 | [2] -0.003 | [3] -0.021 | [4] 0.002 | [5] 0 | [6] 0.03 | [7] 0.005 | [8] 0.004 | [9] 0.012 | [10] -0.006

HSCB (UniProt Q8IWL3)
inactive: [1] 0.056 | [2] 0.014 | [3] 0.056 | [4] -0.06 | [5] 0.026 | [7] -0.028 | [8] -0.087 | [9] 0.049 | [10] -0.011

HOOK2 (UniProt Q96ED9)
inactive: [1] -0.094 | [2] -0.041 | [5] -0.026 | [6] -0.006 | [7] -0.106 | [10] -0.102

HNRNPM (UniProt P52272)
inactive: [1] -0.031 | [2] 0.024 | [3] 0.034 | [4] -0.048 | [5] 0.02 | [6] 0.051 | [7] 0.062 | [8] -0.183 | [9] 0.021 | [10] 0.007

HMG20B (UniProt Q9P0W2)
inactive: [1] -0.029 | [2] -0.054 | [3] -0.018 | [4] -0.03 | [5] -0.009 | [6] 0.001 | [7] -0.031 | [8] 0.009 | [9] 0.035 | [10] 0.015

HEMGN (UniProt Q9BXL5)
inactive: [1] 0.005 | [2] -0.002 | [3] -0.031 | [4] 0.033 | [5] 0.01 | [6] 0.007 | [7] -0.014 | [8] -0.005 | [9] -0.044 | [10] 0.018

— the supplement of paper PMC10849652
